Laboratory results from PubChem BioAssay AID330 (DTP/NCI, 2004).
The list is a part of this screen's results and no random one: it is rich in T/C values a quarter to a half above the control, in often repeated tests (any T/C) and in doses without a T/C. Other doses and runs of a compound stand elsewhere. T/C is the treated group as % of the vehicle group. Some entries give survivors of the animals treated and no T/C: the source holds a T/C of zero for them, seemingly a mark for toxic or unscored doses. Some survivor counts are full or nearly so, which does not show that the dose was tolerated: survival well below the control is almost never listed, so the zero probably covers shortened survival too. Counts of survivors are from the toxicity check (mostly the fifth day) where no day follows; animals may have died later. Schedules are NCI's codes, taken here to give the interval after Q, in days (D) or hours (H), and the number of doses after X. Counts like (3×) stand for listed records that agree. For survival time, the PubChem record calls one and a half times the control and up active, and a quarter to a half above the control has no call in these data; cut-offs in other NCI protocols can differ. Some T/C values carry the count of animals alive at the toxicity check (mostly the fifth day); without a count, all were alive then. Some entries were tested several times; the values are given in rising order.

Tested on: P388 leukemia ip, CD2F1 mice, survival T/C
Test: NCI In Vivo Anticancer Drug Screen. Data for tumor model P388 Leukemia (intraperitoneal) in CD2F1 (CDF1) mice
Conditions: T/C endpoint: median survival time, higher T/C = longer survival
[1] = dose: 67.0 mg/kg/injection, schedule: Q01DX005 (ip), vehicle: other
[2] = dose: 200.0 mg/kg/injection, schedule: Q01DX005 (ip), vehicle: saline with Tween-80

## NS(=O)(=O)OCCCCCCCOS(N)(=O)=O
dose: 5.0 mg/kg/injection, schedule: Q03HX009 (ip), vehicle: other
  T/C: 131 % of control
dose: 7.0 mg/kg/injection, schedule: Q03HX009 (ip), vehicle: other
  T/C: 139 % of control
dose: 7.4 mg/kg/injection, schedule: Q01DX009 (ip), vehicle: other
  T/C: 140 % of control
dose: 10.0 mg/kg/injection, schedule: Q03HX003 (ip), vehicle: other
  T/C: 130 % of control
dose: 11.1 mg/kg/injection, schedule: Q01DX009 (ip), vehicle: other
  T/C: 134 % of control
dose: 12.5 mg/kg/injection, schedule: Q01DX005 (ip), vehicle: saline with Tween-80
  T/C: 126 % of control
dose: 13.0 mg/kg/injection, schedule: Q01DX005 (ip), vehicle: other
  T/C: 142 % of control
dose: 13.0 mg/kg/injection, schedule: Q01DX005 (ip), vehicle: saline with Tween-80
  T/C: 138 % of control
dose: 13.4 mg/kg/injection, schedule: Q01DX005 (ip), vehicle: other
  T/C: 141 % of control
dose: 14.9 mg/kg/injection, schedule: Q04DX003 (ip), vehicle: other
  T/C: 130 % of control
dose: 15.0 mg/kg/injection, schedule: Q03HX003 (ip), vehicle: other
  T/C: 141 % of control
dose: 20.0 mg/kg/injection, schedule: Q01DX005 (ip), vehicle: saline with Tween-80
  T/C: 138 % of control
dose: 20.0 mg/kg/injection, schedule: Q01DX005 (iv), vehicle: other
  T/C: 129 % of control
dose: 22.3 mg/kg/injection, schedule: Q04DX003 (ip), vehicle: other
  T/C: 140 % of control
dose: 25.0 mg/kg/injection, schedule: Q01DX005 (ip), vehicle: saline with Tween-80
  T/C: 138 % of control
dose: 30.0 mg/kg/injection, schedule: Q01DX005 (ip), vehicle: saline with Tween-80, evaluated on day 45
  T/C: 147 and 161 % of control
dose: 30.0 mg/kg/injection, schedule: Q01DX005 (ip), vehicle: saline with Tween-80, evaluated on day 60
  T/C: 150 (2×) and 154 % of control
dose: 30.0 mg/kg/injection, schedule: Q01DX005 (iv), vehicle: other
  T/C: 140 % of control
dose: 44.0 mg/kg/injection, schedule: Q01DX005 (ip), vehicle: saline with Tween-80, evaluated on day 30
  T/C: 173 % of control
dose: 44.0 mg/kg/injection, schedule: Q01DX005 (ip), vehicle: saline with Tween-80, evaluated on day 45
  T/C: 158 and 167 % of control
dose: 44.0 mg/kg/injection, schedule: Q01DX005 (ip), vehicle: saline with Tween-80, evaluated on day 60
  T/C: 169, 169 [9 of 10 alive], 172, 173 (2×), 188 % of control
dose: 44.9 mg/kg/injection, schedule: Q01DX001 (ip), vehicle: other
  T/C: 134 % of control
dose: 50.0 mg/kg/injection, schedule: Q01DX005 (ip), vehicle: saline with Tween-80
  T/C: 109, 165, 174, 189 % of control
dose: 55.0 mg/kg/injection, schedule: Q03HX009 (ip), vehicle: other
  survivor count: 10 of 10
dose: 55.6 mg/kg/injection, schedule: Q01DX009 (oral), vehicle: other
  T/C: 134 % of control [9 of 10 alive]
dose: 67.0 mg/kg/injection, schedule: Q01DX001 (iv), vehicle: other
  T/C: 139 % of control
[1]
  T/C: 131 % of control
  survivor count: 9 of 10
dose: 67.0 mg/kg/injection, schedule: Q01DX005 (ip), vehicle: saline with Tween-80, evaluated on day 30
  T/C: 193 % of control
dose: 67.0 mg/kg/injection, schedule: Q01DX005 (ip), vehicle: saline with Tween-80, evaluated on day 45
  T/C: 185 and 191 % of control
dose: 67.0 mg/kg/injection, schedule: Q01DX005 (ip), vehicle: saline with Tween-80, evaluated on day 60
  T/C: 164, 171, 182 (2×), 188, 199 % of control
dose: 74.83 mg/kg/injection, schedule: Q03HX003 (ip), vehicle: other
  survivor count: 10 of 10
dose: 100.0 mg/kg/injection, schedule: Q01DX001 (iv), vehicle: other
  survivor count: 4 of 10
dose: 100.0 mg/kg/injection, schedule: Q01DX005 (ip), vehicle: other
  survivor count: 10 of 10
dose: 100.0 mg/kg/injection, schedule: Q01DX005 (ip), vehicle: saline with Tween-80, evaluated on day 30
  T/C: 86, 137, 157, 199 % of control
dose: 100.0 mg/kg/injection, schedule: Q01DX005 (ip), vehicle: saline with Tween-80, evaluated on day 45
  T/C: 137 and 213 % of control
dose: 100.0 mg/kg/injection, schedule: Q01DX005 (ip), vehicle: saline with Tween-80, evaluated on day 60
  T/C: 88 [9 of 10 alive], 101, 115, 132, 200, 230 % of control
dose: 100.0 mg/kg/injection, schedule: Q01DX005 (ip), vehicle: saline with Tween-80
  survivor count: 6 of 6
dose: 111.0 mg/kg/injection, schedule: Q03HX003 (ip), vehicle: other
  survivor count: 4 of 10
dose: 123.7 mg/kg/injection, schedule: Q01DX009 (oral), vehicle: other
  survivor count: 10 of 10
dose: 125.0 mg/kg/injection, schedule: Q01DX005 (ip), vehicle: saline with Tween-80
  survivor count: 10 of 10 (2×)
dose: 150.0 mg/kg/injection, schedule: Q01DX005 (ip), vehicle: other
  survivor count: 9 of 10
dose: 150.0 mg/kg/injection, schedule: Q01DX005 (ip), vehicle: saline with Tween-80
  survivor count: 10 of 10
dose: 184.6 mg/kg/injection, schedule: Q01DX009 (oral), vehicle: other
  survivor count: 10 of 10
[2]
  survivor count: 6 of 6
dose: 224.5 mg/kg/injection, schedule: Q01DX001 (ip), vehicle: other
  survivor count: 10 of 10

## COc1cc2c[n+]3ccccc3c(N)c2cc1OC
dose: 400.0 mg/kg/injection, schedule: Q04DX003 (ip), vehicle: distilled water + Tween-80
  survivor count: 1 of 6

## N#CSCCSC#N
dose: 25.0 mg/kg/injection, schedule: Q04DX002 (ip), vehicle: Klucel (hydroxypropylcellulose) (HPC)
  survivor count: 0 of 6
dose: 50.0 mg/kg/injection, schedule: Q04DX002 (ip), vehicle: Klucel (hydroxypropylcellulose) (HPC)
  survivor count: 0 of 6
dose: 100.0 mg/kg/injection, schedule: Q04DX002 (ip), vehicle: Klucel (hydroxypropylcellulose) (HPC)
  survivor count: 0 of 6

## Cc1cccc(/N=C/c2ccccc2O)n1
dose: 200.0 mg/kg/injection, schedule: Q01DX009 (ip), vehicle: Klucel (hydroxypropylcellulose) (HPC)
  survivor count: 1 of 6

## CCOC(=O)/[C](=N\N=P(N(C)C)(N(C)C)N(C)C)[Sb]([CH3])[CH3]
dose: 50.0 mg/kg/injection, schedule: Q01DX001 (ip), vehicle: saline
  survivor count: 2 of 6
dose: 100.0 mg/kg/injection, schedule: Q01DX001 (ip), vehicle: saline
  survivor count: 3 of 6
dose: 200.0 mg/kg/injection, schedule: Q01DX001 (ip), vehicle: saline
  survivor count: 0 of 6
dose: 400.0 mg/kg/injection, schedule: Q01DX001 (ip), vehicle: saline
  survivor count: 0 of 6

## CC(C)NC(=O)OCc1c(COC(=O)NC(C)C)c(Sc2ccccc2)n2c1CCC2
[2]
  survivor count: 6 of 6

## C=C1C(=O)OC2/C=C(\C)CC(O)/C=C(/CO)CC(OC(=O)/C(C)=C/C)C12 (stereo unspecified)
dose: 15.0 mg/kg/injection, schedule: Q01DX009 (ip), vehicle: saline + alcohol
  T/C: 128 % of control
dose: 20.0 mg/kg/injection, schedule: Q01DX009 (ip), vehicle: saline + alcohol
  T/C: 148 % of control
dose: 30.0 mg/kg/injection, schedule: Q01DX009 (ip), vehicle: saline + alcohol
  T/C: 128 % of control [5 of 6 alive]
dose: 40.0 mg/kg/injection, schedule: Q01DX009 (ip), vehicle: saline + alcohol
  T/C: 130 % of control
dose: 60.0 mg/kg/injection, schedule: Q01DX009 (ip), vehicle: saline + alcohol
  T/C: 131 % of control

## CCCCC(CC)OC(=O)c1cccc(C(=O)O)c1 (stereo unspecified)
dose: 400.0 mg/kg/injection, schedule: Q01DX001 (ip), vehicle: saline with Tween-80
  survivor count: 1 of 6

## COC1=CC2C3Cc4c(-c5cc(OC)c(O)c6c5CC5C7C=C(OC)C(=O)CC67CCN5C)cc(OC)c(O)c4C2(CCN3C)CC1=O (stereo unspecified)
dose: 200.0 mg/kg/injection, schedule: Q01DX009 (ip), vehicle: saline with Tween-80
  survivor count: 1 of 6

## NC(=O)c1nnn(Cc2cc(Cl)c(C(=O)c3ccc(Cl)cc3)c(Cl)c2)c1N
dose: 60.0 mg/kg/injection, schedule: Q01DX005 (ip), vehicle: Klucel (hydroxypropylcellulose) (HPC)
  T/C: 127 % of control
dose: 120.0 mg/kg/injection, schedule: Q01DX005 (ip), vehicle: Klucel (hydroxypropylcellulose) (HPC)
  T/C: 125 % of control
dose: 240.0 mg/kg/injection, schedule: Q01DX005 (ip), vehicle: Klucel (hydroxypropylcellulose) (HPC)
  T/C: 134 % of control
